These are yes or no findings as the source states them, for the method shown. In cells and extracts the contact can be indirect. Some entries that bind do so weakly or less than the wild type.
Assays:
[1] = target: fibrin(ogen) β-chain in the fibrin clot (human) (UniProt P02675); assay: cross-linking
[2] = target: fibrin(ogen) α-chain in the fibrin clot (human) (UniProt P02671); assay: cross-linking

The chains behind the UniProt entries cited, without tags or fusion partners. Where a name states a change or a piece, a line headed by the entry shows the natural chain unless it says otherwise. A line that says so, or that is headed by a name, gives the form on record, which may keep a tag or linker. Residues count along the entry.
UniProt P02675, residues 45-491: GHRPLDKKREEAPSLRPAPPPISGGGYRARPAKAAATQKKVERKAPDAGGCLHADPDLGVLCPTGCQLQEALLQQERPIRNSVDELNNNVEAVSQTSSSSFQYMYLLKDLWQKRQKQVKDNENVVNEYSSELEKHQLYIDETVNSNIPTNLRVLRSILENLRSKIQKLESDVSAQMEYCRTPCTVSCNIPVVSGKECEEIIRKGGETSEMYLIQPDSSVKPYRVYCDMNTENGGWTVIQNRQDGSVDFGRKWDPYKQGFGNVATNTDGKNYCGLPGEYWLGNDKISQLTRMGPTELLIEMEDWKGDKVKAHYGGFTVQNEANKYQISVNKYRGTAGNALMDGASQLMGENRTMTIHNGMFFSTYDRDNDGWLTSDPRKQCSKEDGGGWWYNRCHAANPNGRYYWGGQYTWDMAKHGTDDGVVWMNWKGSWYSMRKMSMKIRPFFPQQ
fibrin(ogen) α-chain in the fibrin clot (P02671, form named): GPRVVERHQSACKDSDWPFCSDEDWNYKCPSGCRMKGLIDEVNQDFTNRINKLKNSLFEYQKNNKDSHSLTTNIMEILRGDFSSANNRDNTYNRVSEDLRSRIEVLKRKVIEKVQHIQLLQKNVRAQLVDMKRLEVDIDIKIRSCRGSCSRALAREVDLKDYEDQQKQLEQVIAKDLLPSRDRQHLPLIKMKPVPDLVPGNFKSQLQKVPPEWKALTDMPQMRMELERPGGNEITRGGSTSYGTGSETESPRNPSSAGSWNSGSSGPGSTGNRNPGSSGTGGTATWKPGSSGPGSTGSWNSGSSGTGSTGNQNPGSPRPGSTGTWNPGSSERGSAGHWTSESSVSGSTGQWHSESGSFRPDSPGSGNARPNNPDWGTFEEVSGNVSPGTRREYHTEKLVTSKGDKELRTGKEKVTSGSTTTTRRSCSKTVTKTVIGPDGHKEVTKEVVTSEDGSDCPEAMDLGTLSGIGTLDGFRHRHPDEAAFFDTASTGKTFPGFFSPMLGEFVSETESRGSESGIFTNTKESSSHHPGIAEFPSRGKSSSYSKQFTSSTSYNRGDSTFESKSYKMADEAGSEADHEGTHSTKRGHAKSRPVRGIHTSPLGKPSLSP
UniProt P02768, residues 25-609: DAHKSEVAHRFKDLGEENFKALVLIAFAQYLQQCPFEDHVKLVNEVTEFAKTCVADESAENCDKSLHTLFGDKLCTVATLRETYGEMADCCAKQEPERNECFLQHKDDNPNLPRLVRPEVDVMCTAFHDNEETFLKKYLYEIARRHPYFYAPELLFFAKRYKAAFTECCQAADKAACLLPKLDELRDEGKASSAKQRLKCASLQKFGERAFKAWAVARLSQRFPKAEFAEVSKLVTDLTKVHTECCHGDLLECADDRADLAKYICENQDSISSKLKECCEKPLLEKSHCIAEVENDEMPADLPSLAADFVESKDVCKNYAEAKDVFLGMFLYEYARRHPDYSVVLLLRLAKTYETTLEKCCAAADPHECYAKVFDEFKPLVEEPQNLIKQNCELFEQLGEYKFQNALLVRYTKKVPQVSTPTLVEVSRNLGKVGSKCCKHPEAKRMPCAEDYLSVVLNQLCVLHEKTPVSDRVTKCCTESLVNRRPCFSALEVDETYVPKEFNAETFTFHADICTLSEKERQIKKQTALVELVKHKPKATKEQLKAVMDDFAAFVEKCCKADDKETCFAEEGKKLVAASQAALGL
fibrin(ogen) γ-chain in the fibrin clot (P02679-2, form named): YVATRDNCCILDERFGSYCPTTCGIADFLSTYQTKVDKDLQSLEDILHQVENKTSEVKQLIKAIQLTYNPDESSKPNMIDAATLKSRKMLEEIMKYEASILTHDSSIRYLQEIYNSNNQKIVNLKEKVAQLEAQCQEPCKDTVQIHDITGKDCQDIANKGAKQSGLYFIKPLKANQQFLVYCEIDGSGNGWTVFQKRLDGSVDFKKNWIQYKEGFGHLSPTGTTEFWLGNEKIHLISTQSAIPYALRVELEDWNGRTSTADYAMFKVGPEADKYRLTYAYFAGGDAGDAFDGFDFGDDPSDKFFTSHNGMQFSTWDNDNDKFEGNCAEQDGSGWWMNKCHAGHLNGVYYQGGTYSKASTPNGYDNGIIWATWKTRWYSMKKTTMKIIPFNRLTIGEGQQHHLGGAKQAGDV

Substance	binding [1]	binding [2]
Human Serum Albumin (from UniProt P02768 25-609)	binds	binds
fibrin(ogen) β-chain in the fibrin clot (from UniProt P02675 45-491)	–	binds
fibrin(ogen) γ-chain in the fibrin clot (from UniProt P02679-2 27-437)	binds	binds

Reference: publication doi:10.1101/739318
